Source: publication PMC5447885
No constants are given. Whether binding was seen depends on the method and setting.

Experiments:
Assay in all cases: two-hybrid; yeast two-hybrid; told only in the discussion, no conditions, constructs or orientation given
[1] = target: T1, OsCRC1 (rice) (UniProt Q7XK25)
T1 sequence: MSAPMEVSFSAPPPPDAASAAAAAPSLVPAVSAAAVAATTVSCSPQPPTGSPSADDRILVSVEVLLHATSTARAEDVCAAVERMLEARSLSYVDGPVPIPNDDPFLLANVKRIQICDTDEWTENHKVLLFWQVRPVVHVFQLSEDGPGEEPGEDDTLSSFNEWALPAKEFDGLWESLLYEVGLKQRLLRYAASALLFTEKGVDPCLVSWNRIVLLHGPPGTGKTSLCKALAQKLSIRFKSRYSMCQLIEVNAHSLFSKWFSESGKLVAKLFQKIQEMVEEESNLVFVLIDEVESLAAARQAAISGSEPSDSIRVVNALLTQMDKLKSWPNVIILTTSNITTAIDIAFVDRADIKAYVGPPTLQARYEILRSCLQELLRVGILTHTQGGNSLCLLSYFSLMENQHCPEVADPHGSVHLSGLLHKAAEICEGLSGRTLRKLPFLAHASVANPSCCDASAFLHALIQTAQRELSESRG

[2] = target: T2, OsPAIR3 (rice) (UniProt B9G5N1)
T2 sequence: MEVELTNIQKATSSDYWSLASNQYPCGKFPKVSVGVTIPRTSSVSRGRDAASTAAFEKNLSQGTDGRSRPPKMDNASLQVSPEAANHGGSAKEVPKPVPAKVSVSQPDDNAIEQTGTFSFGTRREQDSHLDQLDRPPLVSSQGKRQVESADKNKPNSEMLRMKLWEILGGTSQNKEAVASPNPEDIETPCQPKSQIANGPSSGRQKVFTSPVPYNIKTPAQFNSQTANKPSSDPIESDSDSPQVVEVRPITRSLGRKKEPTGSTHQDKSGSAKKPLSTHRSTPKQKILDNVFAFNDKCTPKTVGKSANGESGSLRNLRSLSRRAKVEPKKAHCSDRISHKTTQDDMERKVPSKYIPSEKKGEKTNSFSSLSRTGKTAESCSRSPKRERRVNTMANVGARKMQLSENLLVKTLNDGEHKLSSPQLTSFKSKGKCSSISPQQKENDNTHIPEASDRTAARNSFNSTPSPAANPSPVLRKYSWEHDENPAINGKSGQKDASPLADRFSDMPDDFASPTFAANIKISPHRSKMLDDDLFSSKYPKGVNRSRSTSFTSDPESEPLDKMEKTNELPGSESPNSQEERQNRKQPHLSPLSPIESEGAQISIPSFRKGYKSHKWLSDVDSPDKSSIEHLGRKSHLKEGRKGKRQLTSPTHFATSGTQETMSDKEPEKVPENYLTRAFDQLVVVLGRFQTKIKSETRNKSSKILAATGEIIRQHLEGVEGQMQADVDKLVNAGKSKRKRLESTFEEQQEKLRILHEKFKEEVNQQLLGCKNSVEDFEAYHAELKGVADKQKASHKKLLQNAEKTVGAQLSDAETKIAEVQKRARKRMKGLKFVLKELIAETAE

[3] = target: T3, OsZEP1 (rice) (UniProt Q7FAD5)
T3 sequence: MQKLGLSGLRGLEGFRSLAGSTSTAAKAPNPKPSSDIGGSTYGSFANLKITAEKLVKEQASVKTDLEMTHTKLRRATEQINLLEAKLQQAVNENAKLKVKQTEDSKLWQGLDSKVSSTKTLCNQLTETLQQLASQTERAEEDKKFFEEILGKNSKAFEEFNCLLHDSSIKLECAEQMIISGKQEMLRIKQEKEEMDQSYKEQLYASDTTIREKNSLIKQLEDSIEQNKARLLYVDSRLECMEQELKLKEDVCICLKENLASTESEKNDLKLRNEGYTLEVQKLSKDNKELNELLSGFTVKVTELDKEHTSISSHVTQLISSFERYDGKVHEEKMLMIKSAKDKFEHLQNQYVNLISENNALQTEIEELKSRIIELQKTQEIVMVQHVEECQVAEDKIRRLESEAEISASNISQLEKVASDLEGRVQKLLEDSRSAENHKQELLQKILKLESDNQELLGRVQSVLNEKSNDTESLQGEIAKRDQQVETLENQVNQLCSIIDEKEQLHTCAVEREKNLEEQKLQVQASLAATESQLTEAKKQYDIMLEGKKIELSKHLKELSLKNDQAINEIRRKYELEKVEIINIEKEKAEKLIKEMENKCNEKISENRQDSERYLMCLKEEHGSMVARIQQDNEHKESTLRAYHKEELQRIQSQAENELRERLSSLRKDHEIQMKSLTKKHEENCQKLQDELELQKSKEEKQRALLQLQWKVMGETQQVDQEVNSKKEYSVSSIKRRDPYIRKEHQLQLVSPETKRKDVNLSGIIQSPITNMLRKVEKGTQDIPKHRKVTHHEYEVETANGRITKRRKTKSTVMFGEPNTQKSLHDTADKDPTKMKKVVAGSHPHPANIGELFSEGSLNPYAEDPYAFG

Measured: binding

OsBVF1 (Bivalent Formation 1) (rice (Oryza sativa L.))
no binding: all assays above
